Assay results as given in PubChem BioAssay AID651593 (National Center for Advancing Translational Sciences (NCATS), 2012).
The campaign covered roughly 1,100 compounds. About 860 (78%) were called active. So high a share suggests a set chosen from earlier hits. The inconclusive results got no clear call from the source; some entries with a clear call stand among them for comparison. The call rests on the fitted dose curve; in most records, active means well fitted activation curve with a large enough effect; inconclusive means small, poorly fitted or top-dose-only effect; inactive means flat fitted curve, though single readings scatter. Where the call is inconclusive, the potency comes from a doubtful curve fit.

Experiment: qHTS of Nrf2 Activators: Hit Validation in Primary Assay; further: nearly all actives have a fitted effect of over 70% in size
Settings: Nrf2/ARE reporter cell assay, activation
Source text: Many diseases have some form of oxidative stress injury and ties to inflammation, causing a host of problems for the patient. The antioxidant response element (ARE) plays an important role in alleviating the harmful effects of oxidative stress. The antioxidant response element (ARE) is a transcriptional regulatory element involved in the activation of genes coding for a number of antioxidant proteins and detoxifying enzymes. These enzymes work in concert to protect tissues from oxidative insults and chemical toxicities in human hepatocytes and immune cells. The protective effects of ARE activation are primarily triggered through Nrf2 (NF-E2-related factor) binding to and activating AREs. It is known that Nrf2 controls the production of over 250 antioxidant and detoxification proteins (Hu et al., 2006), thereby protecting tissues by increasing cellular antioxidant content and suppressing inflammatory signaling pathways. The transcription factor Nrf2 is a central link between oxidative chemicals, such as phenolic antioxidants and electrophilic compounds, and the activation of ARE. Nrf2 levels are constitutively low as a consequence of its interaction with Keap1, which targets its degradation (Zipper and Mulcahy, 2002). Electrophiles react with key cysteine residues in Keap1, releasing Nrf2 and allowing its translocation to the nucleus. Once within the nucleus, Nrf2 complexes with coactivators such as p300, and binds to the AREs to induce gene transcription of cytoprotective enzymes, resulting in the prevention of toxicity. Activation of Nrf2 protects tissues by increasing cellular antioxidant content and suppressing inflammatory signaling pathways. Identifying novel and potent Nrf2 activators by using the AREc32 cell line to detect ARE activation by small molecules will lead to the identification and development of probes to study protective pathways in multiple tissues. These specific probes are essential to study the ARE pathway, and eventually to determine whether this pathway does activate genes that could protect against a host of diseases, including cardiovascular diseases, obesity, diabetes, Alzheimer's, and Parkinson's disease.
This project's aim is to identify novel and potent Nrf2 activators by using the AREc32 cell line to detect ARE activation by small molecules, which will lead to the identification and development of probes to study the ARE pathway.
NIH Chemical Genomics Center [NCGC]
NIH Molecular Libraries Probe Centers Network [MLPCN]
Assay Submitter (PI): Curtis Klaassen, University of Kansas Medical Center
Quantification of ARE activation after compound treatment was measured by the Steady-Glo Luciferase (R) assay system (Promega) in AREc32_fluc stable cells. […] The plates were measured on a ViewLux plate reader (PerkinElmer) with clear filter.
Potency means the concentration at half of the fitted maximal effect.

Which Potency does the source give for `Cc1cc(SCC(=O)N/N=C/c2ccco2)nc2ccccc12` here?
The Potency was active: 11.6 µM.

Which Potency does the source give for `CCOc1ccc(-n2c(O)c(N=Nc3ccc([N+](=O)[O-])cc3)c(=O)[nH]c2=O)cc1` here?
The Potency was inconclusive: 20.6 µM [activator, single point].

With `CC(=CCOc1ccc2ccc(=O)oc2c1)C1=CC(=O)C(C)(C)O1` as the compound, how does the Potency read?
Its Potency is inconclusive: 2.31 µM [activator, partial curve].

With `Cn1c(O)c(N=Nc2ccc(S(=O)(=O)N3CCOCC3)cc2)c(=O)n(C)c1=O` as the compound, how does the Potency read?
Its Potency is active: 18.4 µM.
